Test results reported in paper PMC12540712.
Results are given in words; binding and its absence hold for the method and conditions named. In cells and extracts the contact can be indirect. Some results given as binding are weak or reduced against the parent protein; the word gives no strength. Tags and fused reporters may be left off the sequences shown.

By UniProt entry, the sequences of proteins in these tests, tags left out. Where a name states a change or a piece, a line headed by the entry shows the natural chain unless it says otherwise.
UniProt P28340: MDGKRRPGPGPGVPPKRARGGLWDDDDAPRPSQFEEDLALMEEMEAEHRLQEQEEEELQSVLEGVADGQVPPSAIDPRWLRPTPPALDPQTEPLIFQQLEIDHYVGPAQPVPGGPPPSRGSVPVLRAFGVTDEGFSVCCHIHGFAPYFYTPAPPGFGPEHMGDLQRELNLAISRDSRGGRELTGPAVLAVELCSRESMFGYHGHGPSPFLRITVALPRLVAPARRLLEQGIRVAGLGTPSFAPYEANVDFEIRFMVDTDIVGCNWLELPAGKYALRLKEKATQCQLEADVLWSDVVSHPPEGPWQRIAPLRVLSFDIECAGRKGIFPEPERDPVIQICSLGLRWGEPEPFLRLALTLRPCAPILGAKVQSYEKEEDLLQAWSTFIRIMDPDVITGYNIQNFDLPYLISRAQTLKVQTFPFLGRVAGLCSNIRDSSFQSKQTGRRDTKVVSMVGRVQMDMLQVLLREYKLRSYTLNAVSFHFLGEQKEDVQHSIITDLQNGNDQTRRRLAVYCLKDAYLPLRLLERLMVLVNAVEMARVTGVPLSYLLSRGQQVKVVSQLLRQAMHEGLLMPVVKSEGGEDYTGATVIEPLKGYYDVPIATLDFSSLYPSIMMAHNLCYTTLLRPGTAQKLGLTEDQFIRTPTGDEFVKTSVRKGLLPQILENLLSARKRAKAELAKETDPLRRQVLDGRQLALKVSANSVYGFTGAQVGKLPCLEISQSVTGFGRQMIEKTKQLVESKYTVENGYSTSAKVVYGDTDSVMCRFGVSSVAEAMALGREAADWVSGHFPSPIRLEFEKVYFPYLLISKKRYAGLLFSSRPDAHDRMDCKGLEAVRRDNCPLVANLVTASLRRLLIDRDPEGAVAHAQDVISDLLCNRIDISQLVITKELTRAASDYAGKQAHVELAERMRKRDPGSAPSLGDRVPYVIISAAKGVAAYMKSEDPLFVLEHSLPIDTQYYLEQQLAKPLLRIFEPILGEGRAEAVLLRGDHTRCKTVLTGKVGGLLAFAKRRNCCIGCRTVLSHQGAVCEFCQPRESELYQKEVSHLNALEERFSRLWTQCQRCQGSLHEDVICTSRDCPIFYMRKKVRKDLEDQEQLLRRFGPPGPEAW

Columns and labels:
Assay in all cases: co-IP; FLAG-IP on Anti-FLAG-M2 affinity beads overnight from HEK293T cells expressing FLAG-And-1 or truncated mutants, with or without UVB; 20 mM Tris-HCl pH 8.0, 100 mM NaCl, 1 mM EDTA, 0.5% NP-40, 10 mM NaF
[1] = target: T1, FLAG-And-1 SepB + HMG domain (330-1129) (human) (UniProt O75717)
T1 sequence: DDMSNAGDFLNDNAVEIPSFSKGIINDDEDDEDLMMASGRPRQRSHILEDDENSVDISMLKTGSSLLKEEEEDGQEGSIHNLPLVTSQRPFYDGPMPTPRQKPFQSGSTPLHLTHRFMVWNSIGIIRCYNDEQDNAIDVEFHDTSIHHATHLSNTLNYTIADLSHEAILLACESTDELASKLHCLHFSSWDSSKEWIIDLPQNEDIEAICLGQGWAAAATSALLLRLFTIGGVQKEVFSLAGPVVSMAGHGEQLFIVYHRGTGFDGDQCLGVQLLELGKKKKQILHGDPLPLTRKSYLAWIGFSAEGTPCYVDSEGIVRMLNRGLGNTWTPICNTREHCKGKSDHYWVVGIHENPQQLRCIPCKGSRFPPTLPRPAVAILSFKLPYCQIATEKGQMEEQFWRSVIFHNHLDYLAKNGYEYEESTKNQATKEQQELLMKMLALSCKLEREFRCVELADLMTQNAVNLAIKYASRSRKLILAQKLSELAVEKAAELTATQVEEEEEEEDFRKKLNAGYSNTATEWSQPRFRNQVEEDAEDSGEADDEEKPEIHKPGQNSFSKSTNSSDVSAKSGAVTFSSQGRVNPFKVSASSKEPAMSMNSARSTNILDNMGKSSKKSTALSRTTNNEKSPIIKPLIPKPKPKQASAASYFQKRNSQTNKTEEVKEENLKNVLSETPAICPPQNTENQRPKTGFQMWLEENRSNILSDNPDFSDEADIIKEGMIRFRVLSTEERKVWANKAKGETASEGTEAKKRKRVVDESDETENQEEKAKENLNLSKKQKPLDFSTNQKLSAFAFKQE

[2] = target: T2, FLAG-And-1 SepB domain (330–984) (human) (UniProt O75717)
T2 sequence: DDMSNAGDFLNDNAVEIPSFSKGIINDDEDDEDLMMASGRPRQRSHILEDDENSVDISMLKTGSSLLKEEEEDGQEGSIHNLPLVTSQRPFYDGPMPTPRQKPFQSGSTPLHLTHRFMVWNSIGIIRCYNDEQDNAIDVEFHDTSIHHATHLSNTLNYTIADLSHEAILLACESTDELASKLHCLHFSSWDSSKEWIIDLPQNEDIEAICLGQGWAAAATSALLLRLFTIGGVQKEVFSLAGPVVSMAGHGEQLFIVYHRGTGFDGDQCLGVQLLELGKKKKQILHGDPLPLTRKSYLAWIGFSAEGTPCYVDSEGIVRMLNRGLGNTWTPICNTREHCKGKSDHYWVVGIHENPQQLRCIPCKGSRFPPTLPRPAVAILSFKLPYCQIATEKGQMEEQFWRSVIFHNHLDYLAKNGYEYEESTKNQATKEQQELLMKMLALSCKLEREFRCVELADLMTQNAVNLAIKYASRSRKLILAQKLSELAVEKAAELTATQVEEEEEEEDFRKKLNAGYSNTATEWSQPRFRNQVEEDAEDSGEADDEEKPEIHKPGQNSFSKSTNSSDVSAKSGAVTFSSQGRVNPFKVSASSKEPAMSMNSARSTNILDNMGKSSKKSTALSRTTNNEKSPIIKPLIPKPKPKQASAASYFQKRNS

[3] = target: T3, FLAG-And-1, full-length And-1 (FL, 1–1129) (human) (UniProt O75717)
T3 sequence: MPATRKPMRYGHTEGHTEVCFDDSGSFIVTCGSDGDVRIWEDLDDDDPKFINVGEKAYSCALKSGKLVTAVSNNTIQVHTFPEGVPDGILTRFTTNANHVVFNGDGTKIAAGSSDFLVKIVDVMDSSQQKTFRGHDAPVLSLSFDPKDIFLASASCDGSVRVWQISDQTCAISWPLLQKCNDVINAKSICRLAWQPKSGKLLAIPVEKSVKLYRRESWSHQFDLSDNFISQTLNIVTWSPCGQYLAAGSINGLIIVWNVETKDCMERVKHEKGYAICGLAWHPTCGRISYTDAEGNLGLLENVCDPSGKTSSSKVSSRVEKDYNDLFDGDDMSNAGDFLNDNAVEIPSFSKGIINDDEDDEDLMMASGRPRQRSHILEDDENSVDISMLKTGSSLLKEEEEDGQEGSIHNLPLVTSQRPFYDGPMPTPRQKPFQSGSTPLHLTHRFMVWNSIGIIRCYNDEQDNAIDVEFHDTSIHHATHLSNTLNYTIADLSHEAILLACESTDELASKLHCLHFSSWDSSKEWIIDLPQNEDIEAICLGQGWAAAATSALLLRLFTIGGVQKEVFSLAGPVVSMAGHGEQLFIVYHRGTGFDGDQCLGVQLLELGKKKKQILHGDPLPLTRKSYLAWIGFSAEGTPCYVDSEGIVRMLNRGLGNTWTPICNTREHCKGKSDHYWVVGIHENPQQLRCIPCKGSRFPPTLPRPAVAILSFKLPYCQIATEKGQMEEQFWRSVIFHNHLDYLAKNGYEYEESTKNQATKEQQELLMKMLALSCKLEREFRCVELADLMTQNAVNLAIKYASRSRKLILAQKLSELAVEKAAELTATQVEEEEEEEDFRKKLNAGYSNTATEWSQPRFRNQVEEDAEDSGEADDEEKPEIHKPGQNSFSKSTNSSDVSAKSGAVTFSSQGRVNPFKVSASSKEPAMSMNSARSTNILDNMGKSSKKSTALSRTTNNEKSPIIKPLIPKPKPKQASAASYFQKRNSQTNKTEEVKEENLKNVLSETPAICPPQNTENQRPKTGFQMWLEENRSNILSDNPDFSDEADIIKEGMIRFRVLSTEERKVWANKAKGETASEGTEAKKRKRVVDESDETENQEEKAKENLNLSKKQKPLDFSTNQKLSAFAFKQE

binding [1]: binds | binding [2]: binds | binding [3]: binds
Substance: catalytic subunit of DNA polymerase δ (p125) (from UniProt P28340 1-1107)
